Test results reported in PMC4100745.
These are yes or no findings as the source states them, for the method shown. Binding seen in cells or lysates may run through a third protein. Some binding calls cover weakened binding; strength is not graded here. For part of these data: Sequences can lack the tags named with a protein.

Protein sequences, listed by entry. Tags and fused reporters are not part of them.
UniProt Q01094: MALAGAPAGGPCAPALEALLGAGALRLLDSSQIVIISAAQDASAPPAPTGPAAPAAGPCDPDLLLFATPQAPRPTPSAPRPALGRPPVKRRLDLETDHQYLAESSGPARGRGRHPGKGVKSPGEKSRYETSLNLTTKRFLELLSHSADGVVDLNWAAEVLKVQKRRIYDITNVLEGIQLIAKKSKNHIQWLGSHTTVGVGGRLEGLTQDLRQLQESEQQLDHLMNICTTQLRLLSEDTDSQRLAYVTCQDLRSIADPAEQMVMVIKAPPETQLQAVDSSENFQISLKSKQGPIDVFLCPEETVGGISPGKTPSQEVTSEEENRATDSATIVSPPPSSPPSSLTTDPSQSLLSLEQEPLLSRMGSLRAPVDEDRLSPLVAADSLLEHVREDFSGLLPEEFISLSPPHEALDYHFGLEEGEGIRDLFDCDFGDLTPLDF

Assays:
GST-Rb = target: T1, GST-Rb (UniProt P06400); test: pull-down; GST, GST-Rb or GST-E2F1 on glutathione-Sepharose beads; 10 µl of 35S-labeled KDM2A reticulocyte lysate; protein-binding buffer, 2 hr at 4°C, six washes; SDS-PAGE and autoradiography; only the target purified
T1 sequence: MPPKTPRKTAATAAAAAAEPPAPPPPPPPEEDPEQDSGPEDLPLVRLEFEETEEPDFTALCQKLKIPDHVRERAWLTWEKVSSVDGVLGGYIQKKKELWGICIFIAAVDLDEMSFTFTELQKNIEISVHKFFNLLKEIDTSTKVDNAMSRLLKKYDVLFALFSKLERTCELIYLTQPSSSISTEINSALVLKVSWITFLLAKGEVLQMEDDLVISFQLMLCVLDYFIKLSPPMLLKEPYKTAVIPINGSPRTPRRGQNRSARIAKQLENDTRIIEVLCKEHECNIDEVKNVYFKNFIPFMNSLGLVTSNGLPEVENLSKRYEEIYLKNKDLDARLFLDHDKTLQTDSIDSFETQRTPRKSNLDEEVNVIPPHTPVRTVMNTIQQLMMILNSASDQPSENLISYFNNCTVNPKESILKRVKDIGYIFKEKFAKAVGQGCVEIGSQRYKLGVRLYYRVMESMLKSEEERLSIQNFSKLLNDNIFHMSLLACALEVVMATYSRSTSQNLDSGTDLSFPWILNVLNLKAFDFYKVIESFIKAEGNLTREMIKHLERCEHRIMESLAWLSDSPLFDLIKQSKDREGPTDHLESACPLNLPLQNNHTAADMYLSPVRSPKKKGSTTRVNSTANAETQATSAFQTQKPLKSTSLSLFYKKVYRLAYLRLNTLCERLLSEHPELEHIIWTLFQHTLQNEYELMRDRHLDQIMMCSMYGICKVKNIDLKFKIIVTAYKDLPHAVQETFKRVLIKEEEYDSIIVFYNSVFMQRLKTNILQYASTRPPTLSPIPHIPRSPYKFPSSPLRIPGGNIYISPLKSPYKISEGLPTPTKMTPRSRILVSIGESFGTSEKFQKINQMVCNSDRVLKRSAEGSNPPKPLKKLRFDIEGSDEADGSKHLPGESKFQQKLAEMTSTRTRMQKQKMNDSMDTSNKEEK

GST-E2F1 = GST-E2F1 (UniProt Q01094); test: as above
[1] = target: T2, KDM2A (human (endogenous in MCF7)) (UniProt Q9Y2K7); test: co-IP; 200 µg MCF7 lysate (Nonidet P-40 lysis) precipitated with 2 µg rabbit polyclonal KDM2A antibody, anti-rabbit IgG as control; western blot for Rb and E2F1; cells serum starved 48 hr and stimulated with serum for 0 to 8 hr
T2 sequence: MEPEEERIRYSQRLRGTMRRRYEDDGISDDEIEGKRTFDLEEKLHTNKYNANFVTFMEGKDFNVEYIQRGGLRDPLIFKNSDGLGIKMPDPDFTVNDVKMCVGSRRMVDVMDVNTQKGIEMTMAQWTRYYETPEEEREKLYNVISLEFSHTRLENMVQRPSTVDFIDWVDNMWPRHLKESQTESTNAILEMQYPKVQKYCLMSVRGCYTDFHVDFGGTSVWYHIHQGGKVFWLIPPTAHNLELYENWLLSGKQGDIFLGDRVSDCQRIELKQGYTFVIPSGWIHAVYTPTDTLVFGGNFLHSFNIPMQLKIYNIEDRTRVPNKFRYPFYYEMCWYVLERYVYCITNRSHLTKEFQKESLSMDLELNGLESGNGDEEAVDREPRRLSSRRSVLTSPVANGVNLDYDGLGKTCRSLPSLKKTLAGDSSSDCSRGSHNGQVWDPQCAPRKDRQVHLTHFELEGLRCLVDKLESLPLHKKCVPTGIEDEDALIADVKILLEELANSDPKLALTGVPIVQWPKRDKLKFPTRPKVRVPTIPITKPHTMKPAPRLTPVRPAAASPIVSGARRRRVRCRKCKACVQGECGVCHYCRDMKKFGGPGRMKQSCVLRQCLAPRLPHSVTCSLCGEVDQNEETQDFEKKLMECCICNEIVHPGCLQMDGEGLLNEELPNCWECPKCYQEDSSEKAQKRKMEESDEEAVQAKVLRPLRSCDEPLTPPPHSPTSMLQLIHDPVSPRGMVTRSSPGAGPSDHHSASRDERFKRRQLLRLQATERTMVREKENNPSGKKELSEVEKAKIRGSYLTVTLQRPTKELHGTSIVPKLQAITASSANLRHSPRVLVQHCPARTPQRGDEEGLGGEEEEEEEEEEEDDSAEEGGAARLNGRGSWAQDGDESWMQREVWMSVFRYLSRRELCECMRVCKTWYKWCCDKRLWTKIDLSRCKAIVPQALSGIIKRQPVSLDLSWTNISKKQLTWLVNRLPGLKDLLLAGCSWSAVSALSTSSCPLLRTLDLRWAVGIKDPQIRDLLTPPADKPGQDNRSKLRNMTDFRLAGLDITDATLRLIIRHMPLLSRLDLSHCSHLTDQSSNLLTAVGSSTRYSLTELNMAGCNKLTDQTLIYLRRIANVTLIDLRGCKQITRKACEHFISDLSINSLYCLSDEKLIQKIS

B1: 35S-Methionine-labeled KDM2A (protein, UniProt Q9Y2K7 1-1162)
chain: MEPEEERIRYSQRLRGTMRRRYEDDGISDDEIEGKRTFDLEEKLHTNKYNANFVTFMEGKDFNVEYIQRGGLRDPLIFKNSDGLGIKMPDPDFTVNDVKMCVGSRRMVDVMDVNTQKGIEMTMAQWTRYYETPEEEREKLYNVISLEFSHTRLENMVQRPSTVDFIDWVDNMWPRHLKESQTESTNAILEMQYPKVQKYCLMSVRGCYTDFHVDFGGTSVWYHIHQGGKVFWLIPPTAHNLELYENWLLSGKQGDIFLGDRVSDCQRIELKQGYTFVIPSGWIHAVYTPTDTLVFGGNFLHSFNIPMQLKIYNIEDRTRVPNKFRYPFYYEMCWYVLERYVYCITNRSHLTKEFQKESLSMDLELNGLESGNGDEEAVDREPRRLSSRRSVLTSPVANGVNLDYDGLGKTCRSLPSLKKTLAGDSSSDCSRGSHNGQVWDPQCAPRKDRQVHLTHFELEGLRCLVDKLESLPLHKKCVPTGIEDEDALIADVKILLEELANSDPKLALTGVPIVQWPKRDKLKFPTRPKVRVPTIPITKPHTMKPAPRLTPVRPAAASPIVSGARRRRVRCRKCKACVQGECGVCHYCRDMKKFGGPGRMKQSCVLRQCLAPRLPHSVTCSLCGEVDQNEETQDFEKKLMECCICNEIVHPGCLQMDGEGLLNEELPNCWECPKCYQEDSSEKAQKRKMEESDEEAVQAKVLRPLRSCDEPLTPPPHSPTSMLQLIHDPVSPRGMVTRSSPGAGPSDHHSASRDERFKRRQLLRLQATERTMVREKENNPSGKKELSEVEKAKIRGSYLTVTLQRPTKELHGTSIVPKLQAITASSANLRHSPRVLVQHCPARTPQRGDEEGLGGEEEEEEEEEEEDDSAEEGGAARLNGRGSWAQDGDESWMQREVWMSVFRYLSRRELCECMRVCKTWYKWCCDKRLWTKIDLSRCKAIVPQALSGIIKRQPVSLDLSWTNISKKQLTWLVNRLPGLKDLLLAGCSWSAVSALSTSSCPLLRTLDLRWAVGIKDPQIRDLLTPPADKPGQDNRSKLRNMTDFRLAGLDITDATLRLIIRHMPLLSRLDLSHCSHLTDQSSNLLTAVGSSTRYSLTELNMAGCNKLTDQTLIYLRRIANVTLIDLRGCKQITRKACEHFISDLSINSLYCLSDEKLIQKIS
modifications: 35S-methionine label
With B1 the binding (GST-Rb) was “binds” and the binding (GST-E2F1) was “binds”.

B2: Rb (protein, UniProt P06400 1-928)
chain: MPPKTPRKTAATAAAAAAEPPAPPPPPPPEEDPEQDSGPEDLPLVRLEFEETEEPDFTALCQKLKIPDHVRERAWLTWEKVSSVDGVLGGYIQKKKELWGICIFIAAVDLDEMSFTFTELQKNIEISVHKFFNLLKEIDTSTKVDNAMSRLLKKYDVLFALFSKLERTCELIYLTQPSSSISTEINSALVLKVSWITFLLAKGEVLQMEDDLVISFQLMLCVLDYFIKLSPPMLLKEPYKTAVIPINGSPRTPRRGQNRSARIAKQLENDTRIIEVLCKEHECNIDEVKNVYFKNFIPFMNSLGLVTSNGLPEVENLSKRYEEIYLKNKDLDARLFLDHDKTLQTDSIDSFETQRTPRKSNLDEEVNVIPPHTPVRTVMNTIQQLMMILNSASDQPSENLISYFNNCTVNPKESILKRVKDIGYIFKEKFAKAVGQGCVEIGSQRYKLGVRLYYRVMESMLKSEEERLSIQNFSKLLNDNIFHMSLLACALEVVMATYSRSTSQNLDSGTDLSFPWILNVLNLKAFDFYKVIESFIKAEGNLTREMIKHLERCEHRIMESLAWLSDSPLFDLIKQSKDREGPTDHLESACPLNLPLQNNHTAADMYLSPVRSPKKKGSTTRVNSTANAETQATSAFQTQKPLKSTSLSLFYKKVYRLAYLRLNTLCERLLSEHPELEHIIWTLFQHTLQNEYELMRDRHLDQIMMCSMYGICKVKNIDLKFKIIVTAYKDLPHAVQETFKRVLIKEEEYDSIIVFYNSVFMQRLKTNILQYASTRPPTLSPIPHIPRSPYKFPSSPLRIPGGNIYISPLKSPYKISEGLPTPTKMTPRSRILVSIGESFGTSEKFQKINQMVCNSDRVLKRSAEGSNPPKPLKKLRFDIEGSDEADGSKHLPGESKFQQKLAEMTSTRTRMQKQKMNDSMDTSNKEEK
B2 was tested, and the binding [1] was “binds”.
